Measurements reported in PubChem BioAssay AID1259308 (NCATS, 2017)

Aim: 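Candidate targets for better recombinant protein yield in mammalian cells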 (primary screen)
Cell system: human HEK293 embryonic kidney cells stably expressing firefly luciferase (HEK-CMV-Luc2-Hygro)
Reagent: single siRNA against human genes, 0.8 pmol siRNA per well
Timing: 72 h
Read-out: 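Reporter luminescence and viable-cell signal on separate replicate plates, given as percent of non-targeting control and median/MAD z-scores, plus per-cell luciferase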
Scale: total luciferase, z-score and total luciferase, % of control: higher = more reporter protein produced
Hit rule: 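Active when the median/MAD z-score for overall luciferase is greater than 3; a gene was taken forward for validation with new siRNAs if at least two of its three siRNAs passed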
Calls: active = raised luciferase; inactive = no rise
Shown is one part, drawn at random, of about 59,000 reagents. About 1,510 of them (2.6%) were called active. 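Calls use total luciferase alone and ignore viability, so some active siRNAs may act by altering cell number.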 Reagents against one gene are numbered here. Not all columns of the deposit are shown.

With knock-down of SPATA31H1 #1, the record shows total luciferase, z-score -0.345; total luciferase, % of control 75; inactive.
SPATA31H1 #2 scored total luciferase, z-score -0.411; total luciferase, % of control 73.7; inactive.
Silencing of SPATA31H1 #3 came out at: total luciferase, z-score -0.774; total luciferase, % of control 66.5; inactive.
Knock-down of SRRM4 #1 came out at: total luciferase, z-score -0.594; total luciferase, % of control 70.1; inactive.
For SRRM4 #2, the entry reads total luciferase, z-score -0.508; total luciferase, % of control 71.8; inactive.
Depletion of SRRM4 #3 resulted in: total luciferase, z-score 0.222; total luciferase, % of control 86.3; inactive.
Depletion of LINC01116 #1 resulted in: total luciferase, z-score -1.8; total luciferase, % of control 46.1; inactive.
Silencing of LINC01116 #2 came out at: total luciferase, z-score -0.565; total luciferase, % of control 70.7; inactive.
LINC01116 #3 gave total luciferase, z-score 0.456; total luciferase, % of control 91; inactive.
With knock-down of C11orf97 #1 the results were total luciferase, z-score 1.34; total luciferase, % of control 109; inactive.
With knock-down of C11orf97 #2, the screen gave total luciferase, z-score 1.08; total luciferase, % of control 103; inactive.
C11orf97 #3 showed total luciferase, z-score -0.168; total luciferase, % of control 78.5; inactive.
UBE3A #1 scored total luciferase, z-score -0.105; total luciferase, % of control 79.8; inactive.
UBE3A #2 scored total luciferase, z-score -1.04; total luciferase, % of control 61.2; inactive.
Knock-down of UBE3A #3 resulted in: total luciferase, z-score -1.8; total luciferase, % of control 46.1; inactive.

Laid out differently: results already given
gene knocked down,reagent no.,"total luciferase, z-score","total luciferase, % of control",outcome
LINC01116,1,-1.8,46.1,inactive
LINC01116,2,-0.565,70.7,inactive
LINC01116,3,0.456,91,inactive
C11orf97,1,1.34,109,inactive

Additional results follow:
After knock-down of RNASE12 #1 the results were total luciferase, z-score -0.356; total luciferase, % of control 74.8; inactive.
For RNASE12 #2 the deposit lists total luciferase, z-score -1.78; total luciferase, % of control 46.5; inactive.
Knock-down of RNASE12 #3 came out at: total luciferase, z-score -1.52; total luciferase, % of control 51.6; inactive.
ASCL2 #1 scored total luciferase, z-score -0.4; total luciferase, % of control 73.9; inactive.
ASCL2 #2 gave total luciferase, z-score 1.11; total luciferase, % of control 104; inactive.
Depletion of ASCL2 #3 resulted in: total luciferase, z-score -0.00933; total luciferase, % of control 81.7; inactive.
Against SELE #1, the entry reads total luciferase, z-score -1.87; total luciferase, % of control 44.8; inactive.
Knock-down of SELE #2 came out at: total luciferase, z-score -0.0759; total luciferase, % of control 80.4; inactive.
Silencing of SELE #3 came out at: total luciferase, z-score -0.302; total luciferase, % of control 75.9; inactive.
With knock-down of THTPA #1, the screen gave total luciferase, z-score 0.723; total luciferase, % of control 96.3; inactive.
With knock-down of THTPA #2 the results were total luciferase, z-score -1.16; total luciferase, % of control 58.9; inactive.
For THTPA #3, the entry reads total luciferase, z-score -0.948; total luciferase, % of control 63; inactive.
TOGARAM1 #1 gave total luciferase, z-score 0.326; total luciferase, % of control 88.4; inactive.
Against TOGARAM1 #2, the values are total luciferase, z-score 2.12; total luciferase, % of control 124; inactive.
Against TOGARAM1 #3, the entry reads total luciferase, z-score -0.42; total luciferase, % of control 73.5; inactive.
With knock-down of CNIH2 #1 the results were total luciferase, z-score 0.463; total luciferase, % of control 91.1; inactive.
After knock-down of CNIH2 #2, the record shows total luciferase, z-score -0.655; total luciferase, % of control 68.9; inactive.
Depletion of CNIH2 #3 gave: total luciferase, z-score -1.15; total luciferase, % of control 59; inactive.
